# Data as given in PubChem BioAssay AID540256 (National Center for Advancing Translational Sciences (NCATS), 2011).
# In all, about 300,000 compounds went through this assay and about 3,700 (1.2%) were called active. The shares of active, inactive and inconclusive entries below differ from those in the screen. The call rests on the fitted dose curve; tested in HEK293 cells. Where the call is inconclusive, the potency comes from a doubtful curve fit.
# Experiment: qHTS for Inhibitors of binding or entry into cells for Lassa Virus; further: nearly all actives have a fitted effect of over 50% in size
# Details: Lassa virus pseudotype entry inhibition, cell reporter; series mostly up to 37.9 µM
# Potency means the concentration at half of the fitted maximal effect.
row,Structure (SMILES),Potency
1,CCn1c(Sc2ccc([N+](=O)[O-])cn2)nnc1-c1ccco1,"inconclusive: 14.1 µM [inhibitor, partial curve, poor fit]"
2,N#CCSCC(=O)Nc1ccccc1,inactive
3,Cc1cccc(-c2nc(Nc3ccc(N4CCOCC4)cc3)c3ccccc3n2)c1,inactive
4,CSC1=C(C#N)C(c2ccc(C)cc2)C2=C(CCCC2=O)N1 (centres undefined),"inconclusive: 1.12 µM [activator, full curve, poor fit]"
5,Cc1ccc(NC(=O)CSC2=C(C#N)C(c3ccc4c(c3)OCO4)CC(=O)N2)cc1C (centres undefined),inactive
6,O=C1CCCCC1Nc1ccc([N+](=O)[O-])cc1 (centres undefined),"inconclusive: 0.794 µM [activator, full curve, poor fit]"
7,Cc1c(NC(=O)c2cccs2)cccc1C(=O)O,"inconclusive: 2.31 µM [activator, single point]"
8,O=[N+]([O-])c1cc(S(=O)(=O)N2CCCCC2)ccc1NCCCN1CCOCC1,inactive
9,COc1ccc(-c2cc3ccc(O)c(CN4CCN(CCO)CC4)c3oc2=O)cc1OC,inactive
10,CCOC(=O)c1c(NC(=O)CN2CCC(C)CC2)sc(C)c1C,"inconclusive: 35.5 µM [inhibitor, single point]"
11,COc1ccc2c(c1)c(=O)c(C(=O)c1ccc(C)cc1)cn2Cc1ccccc1F,"inconclusive: 35.5 µM [inhibitor, single point]"
12,CC(=O)Nc1ccc2[nH]c3ccccc3c2c1,inactive
13,Cc1ccc(-c2ccc(C(=O)O)o2)cc1Cl,"inconclusive: 11.2 µM [activator, single point]"
14,CC(C)Oc1cccc(C(=O)C2CCCN(C(=O)c3ccoc3)C2)c1 (centres undefined),"inconclusive: 31.6 µM [inhibitor, partial curve, poor fit]"
15,CCC(C(=O)OC)n1nnc2sc(-c3ccccc3)cc2c1=O (centres undefined),inactive
16,CN(C)C(CNc1ccc(S(C)(=O)=O)cc1[N+](=O)[O-])c1ccccc1 (centres undefined),"inconclusive: 5.62 µM [inhibitor, full curve, poor fit]"
17,COc1ccc(C2c3c(-c4ccccc4O)n[nH]c3C(=O)N2CCc2ccccc2)cc1 (centres undefined),"inconclusive: 1.41 µM [inhibitor, full curve]"
18,CCCCOc1ccc(NC(=O)CN2CCN(C(=O)OCC)CC2)cc1,active: 3.55 µM
19,C=CCOc1ccc(CNc2nccs2)cc1OC,inactive
20,CC(Cc1cccs1)NC(=O)Nc1ccc(F)cc1 (centres undefined),inactive
21,CCC/C=C(\CCC)C(NS(=O)(=O)c1cccc2cccnc12)c1ccc(C(=O)OC)cc1 (centres undefined),"inconclusive: 29.1 µM [inhibitor, single point]"
22,Cc1ccc(S(=O)(=O)NNC(=S)NC(=O)c2ccc([N+](=O)[O-])cc2)cc1,inactive
23,CCN1CCCC1CNC(=O)c1ccc(N2CCCC2=O)cc1 (centres undefined),"inconclusive: 1.16 µM [activator, single point]"
24,CCc1nc2cc(C)nn2c2nc3ccccc3n12,"inconclusive: 3.55 µM [activator, full curve, poor fit]"
25,CCC1CCCCN1CCCNC(=O)c1ccc2c(c1)sc1nc(-c3ccc(F)cc3)cn12 (centres undefined),"inconclusive: 0.631 µM [inhibitor, full curve, poor fit]"

row,Structure (SMILES),Potency
1,N#C/C(=C\C=C\c1ccccc1[N+](=O)[O-])C(=O)NC1CCCCC1,"inconclusive: 35.5 µM [inhibitor, single point]"
2,C=CCn1c(SC)nccc1=O,inactive
3,O=C(c1ccc(F)cc1)N1CCCC(c2ccccc2)C1 (centres undefined),inactive
4,CCCS(=O)(=O)N1CCCC(C(=O)NCCCN2CCCC2=O)C1 (centres undefined),"inconclusive: 0.708 µM [activator, single point]"
5,O=C(O)CS(=O)(=O)CC(=O)O,inactive
6,C=CCn1c(COc2cccc(C)c2C)nnc1SCC(=O)N1CCN(c2ccccc2)CC1,active: 5.62 µM
7,COc1cccc(C(=O)c2sc(Nc3ccc(F)c(Cl)c3)nc2N)c1,inactive
8,CNS(=O)(=O)c1cn(CC(=O)N2CCN(c3ccc(C)cc3C)CC2)cc1S(=O)(=O)NC,inactive
9,CC1CCC(C(=O)NNC(=O)c2cc(-c3ccco3)[nH]n2)CC1 (centres undefined),inactive
10,Nc1ccc(-c2cnc[nH]2)cc1[N+](=O)[O-],"inconclusive: 35.5 µM [activator, single point]"
11,CC(=O)O[C@H]1CC2(C)[C@@H](C[C@@H](O)[C@H]3[C@@]4(C)CC[C@@H](O)[C@@H](C)[C@@H]4CC[C@@]32C)C1=C(CCC=C(C)C)C(=O)O (some centres undefined),inactive
12,CCCn1nc(C(=O)NCc2ccc3c(c2)OCO3)c2ccccc2c1=O,"inconclusive: 1.26 µM [inhibitor, single point]"
13,Cc1ccc(CN(Cc2ccco2)C(=O)c2cccc(C)c2)cc1,inactive
14,Cc1ccc(CSCCNC(=O)c2ccc(Cl)c(S(=O)(=O)N3CCOCC3)c2)cc1,"inconclusive: 29.1 µM [inhibitor, single point]"
15,Cc1ccc(OCCNc2ccc(S(=O)(=O)N3CCCC3)cn2)cc1,"inconclusive: 20 µM [inhibitor, partial curve, poor fit]"
16,O=C(CSc1ncn[nH]1)Nc1ccc([N+](=O)[O-])cc1Br,"inconclusive: 14.1 µM [inhibitor, single point]"
17,O=C(/C=C/Sc1ncn[nH]1)c1ccc(Cl)cc1,"inconclusive: 22.4 µM [inhibitor, single point]"
18,COc1cccc(CNC(=O)COC(=O)c2nc(Cl)c(Cl)c(Cl)c2Cl)c1,"inconclusive: 35.5 µM [inhibitor, single point]"
19,CCOc1ccc(S(=O)(=O)N2CCC(C(=O)NC3CC3)CC2)cc1Cl,inactive
20,Cc1cccc(-c2nnc(SCCC(=O)N3CCOCC3)o2)c1,"inconclusive: 25.9 µM [inhibitor, single point]"
21,COc1ccc(OCC(=O)Nc2ccccc2O)cc1,"inconclusive: 16.4 µM [inhibitor, single point]"
22,CCOC(=O)c1oc2cc(O)ccc2c(=O)c1-c1ccccc1OC,inactive
23,CC(C)N(Cc1nccn1C)C(=O)c1ccc2oc(CCCc3ccccc3)nc2c1,inactive
24,c1ccc(-c2nnc(SCC3CCCCO3)nc2-c2ccccc2)cc1 (centres undefined),"inconclusive: 10 µM [inhibitor, partial curve, poor fit]"
